Test results taken from PubChem BioAssay AID485314 (National Center for Advancing Translational Sciences (NCATS), 2010).
About 4,500 (1.3%) of roughly 340,000 compounds were called active. The inconclusive results got no clear call from the source; some entries with a clear call stand among them for comparison. Calls follow the shape of the dose curve; as a rule, active = well fitted inhibition curve with a large enough effect; inconclusive = small, poorly fitted or top-dose-only effect, or another doubt; inactive = no such curve, though single readings can be large or run the other way. Potencies beside an inconclusive call are fits to weak or partial responses and may not hold up.

biological target: DNA polymerase beta (Homo sapiens) (UniProt P06746); test: qHTS Assay for Inhibitors of DNA Polymerase Beta; conditions: Pol beta primer extension/strand displacement, fluorescence kinetic; activity change, negative = inhibition: at 114 µM (top of the series)
How it was run: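 Pol beta (10 nM) and compounds were preincubated 15 min at room temperature, then 50 nM substrate (final) started primer extension/strand displacement. Reads were taken at 0 and 10 min; concentration-response data were fitted to a four-parameter Hill equation.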
% is scaled to controls: 0 for no effect and ±100 for the full control effect; potency is read from the fitted curve at half-maximal effect.

| Structure (SMILES) | activity change, negative = inhibition | Potency |
| --- | --- | --- |
| CC(=O)Oc1ccc(C(=O)Nc2cccc(C(=O)c3ccc(C)c(C)c3)c2)cc1 | inactive: 9.66% |  |
| Cc1ccc(C2NC(=O)c3c(sc(C)c3C)N2)c(O)c1 (configuration not stated) | inactive: 1.05% |  |
| Oc1ccc(Nc2nc(-c3ccc(Cl)cc3)nc3ccccc23)cc1 |  | inconclusive: 0.316 µM [inhibitor, full curve] |
| Cc1ccc(NC(=O)CCNS(=O)(=O)c2ccc3c(c2)CCC(=O)N3)cc1F | inactive: -0.881% |  |
| CC(C)Nc1nnc(SCC(=O)c2c[nH]c3ccccc23)s1 | inactive: 1.26% |  |
| Cc1c(Cl)cnc(NC(=O)COC(=O)c2cccc(S(=O)(=O)N3c4ccccc4CC3C)c2)c1Cl (configuration not stated) |  | inconclusive: 15.8 µM [inhibitor, full curve] |
| COc1ccc(C(=O)c2cn(Cc3cccc(C)c3)c3cc4c(cc3c2=O)OCCO4)cc1OC | inactive: 2.63% |  |
| COc1ccc(CCNC(=O)C(=O)c2c(C)[nH]c3ccccc23)cc1 |  | inconclusive: 17.8 µM [inhibitor, partial curve] |
| Cc1ccc(S(=O)(=O)Nc2ccc3c(c2)c(C(=O)OC(C)C)c(C)n3S(=O)(=O)c2ccc(C)cc2)cc1 |  | inconclusive: 0.316 µM [inhibitor, full curve, poor fit] |
| COc1ccccc1N1C(=N)S/C(=C\c2ccc(-c3ccccc3C(=O)O)o2)C1=O |  | active: 79.4 µM |
| O=C(CCC1N=C2c3ccccc3N=C(SCc3cccc(F)c3)N2C1=O)NCc1ccc(F)cc1 (configuration not stated) | inactive: 2.47% |  |
| CC(C)n1nc(C(=O)OCC(=O)c2c[nH]c3ccccc23)c2ccccc2c1=O |  | inconclusive: 0.112 µM [inhibitor, full curve, poor fit] |
| Cc1cc(=O)oc2cc(NS(=O)(=O)c3ccc(F)cc3)ccc12 |  | inconclusive: 89.1 µM [inhibitor, single point] |
| CC1CN(C(=O)/C=C/c2ccccc2Cl)CC(C)O1 (configuration not stated) |  | inconclusive: 3.16 µM [inhibitor, single point] |
| S=C(NCc1ccccc1)NCc1ccc(CNC(=S)NCc2ccccc2)cc1 |  | inconclusive: 11.2 µM [inhibitor, partial curve] |
| CNc1ccc(Br)cc(C(=O)/C=C/c2cc(OC)ccc2OC)c1=O |  | active: 12.6 µM |
| COc1cc(/C=C/C(=O)Nc2ccc3[nH]c(=O)[nH]c3c2)cc(OC)c1OC |  | inconclusive: 44.7 µM [inhibitor, partial curve] |
| CCN(CC)C(=O)/C(=C/c1cn(S(=O)(=O)N(C)C)c2ccccc12)NC(=O)c1ccc(OC)cc1 | inactive: -20.7% |  |
| CN1C(=O)Cc2cc(S(=O)(=O)CCC(=O)Nc3ccccc3)ccc21 | inactive: 3.14% |  |
| COc1ccc(NC(=O)c2ccsc2NC(C)=O)cc1 |  | inconclusive: 25.1 µM [inhibitor, full curve, poor fit] |
| Cc1ccccc1Nc1nc(Cl)c(C=O)s1 | inactive: -14.6% |  |
| COC(=O)c1nc2n(n1)C(c1cccc(Cl)c1)C1=C(CCCC1=O)N2 (configuration not stated) |  | inconclusive: 22.4 µM [inhibitor, full curve] |
| O=C(CCn1cnc2ccccc2c1=O)NCc1ccccc1 |  | active: 20 µM |
| O=C1NN(c2ccccc2)C(=O)/C1=C\c1coc2ccc(O)cc2c1=O | inconclusive: -42.6% [inhibitor] |  |

| Structure (SMILES) | activity change, negative = inhibition | Potency |
| --- | --- | --- |
| O=C1C2C3C=CC(C3)C2C(=O)N1CC1CCCO1 (configuration not stated) |  | inconclusive: 89.1 µM [inhibitor, single point] |
| CCCc1nc2sc3c(SCC(=O)NCc4ccco4)ncnc3c2c2c1CCC2 |  | active: 10 µM |
| Cn1c(SCC(=O)Nc2sccc2C#N)nnc1-c1ccccc1 |  | inconclusive: 25.1 µM [inhibitor, full curve] |
| Cc1nc2c(C(=O)N(C)Cc3ccccc3)c[nH]n2c(=O)c1Cc1ccc(Cl)cc1 |  | inconclusive: 89.1 µM [inhibitor, single point] |
| Cc1ccc(Cl)cc1N1CCN(C(=O)c2ccc3c(c2)N(Cc2ccccc2F)C(=O)c2ccccc2S3(=O)=O)CC1 |  | inconclusive: 4.47 µM [inhibitor, full curve] |
| CCCCOc1ccc(S(=O)(=O)N2CCN(c3ccccc3OCC)CC2)cc1 | inactive: 4.56% |  |
| COc1cc(C=O)ccc1OCC(=O)NC(C)(C)C |  | inconclusive: 3.16 µM [inhibitor, partial curve] |
| O=C(C1CCC(=O)N(C2CCCCCC2)C1)N1CCN(c2ccccc2Cl)CC1 (configuration not stated) |  | inconclusive: 0.398 µM [inhibitor, full curve, poor fit] |
| CC(=O)N1CCc2cc(S(=O)(=O)CCC(=O)NCc3ccc(F)cc3)ccc21 |  | inconclusive: 79.4 µM [inhibitor, single point] |
| CCCNC(=O)c1ccc2c(=O)c(O)c(-c3ccc(C)cc3)[nH]c2c1 | inactive: 4.13% |  |
| O=C(Cc1cccc2ccccc12)N/N=C/c1ccc(OC(=O)/C=C/c2ccco2)cc1 |  | active: 10 µM |
| Cc1nn(CC(=O)NCCCc2ccccc2)c(=O)c2cc3occc3n12 |  | inconclusive: 28.2 µM [inhibitor, partial curve, poor fit] |
| Cc1ccccc1-n1c(SCC(=O)Nc2c(C)cccc2C)nc(O)cc1=O | inactive: -0.326% |  |
| O=C(Cn1ncc2c(=O)oc3ccccc3c21)NCc1ccccc1Cl | inactive: 5.74% |  |
| Nc1cc(F)ccc1N1CCCCCC1 | inactive: 22% |  |
| Oc1cccc(Nc2c3ccccc3nc3ccccc23)c1 |  | inconclusive: 56.2 µM [inhibitor, single point] |
| C1COC(NC(C2CC2)C2CC2)=N1 |  | inconclusive: 10 µM [inhibitor, partial curve] |
| O=C(/C=C/c1ccco1)NCC1OCCc2ccccc21 (configuration not stated) |  | active: 14.1 µM |
| Nc1ccc(Cc2ccc(N)c(O)c2)cc1O |  | inconclusive: 7.94 µM [inhibitor, full curve] |
| N#C/C(=C/c1ccc(-c2cc(C(=O)O)cc(C(=O)O)c2)o1)c1nc2ccccc2s1 |  | active: 20 µM |
| COc1ccc2c(c1)c(/C=N/Nc1ccc(C(=O)O)cc1)c(C)n2C | inconclusive: -47.9% [inhibitor] |  |
| COc1ccc(OC)c(NC(=O)Cn2cnc3c(oc4ccccc43)c2=O)c1 | inactive: -9.33% |  |
| CN(C)c1ncccc1-c1nc2ccccc2s1 |  | inconclusive: 89.1 µM [inhibitor, single point] |
| O=c1c2c3c(sc2nc(NCCO)n1-c1ccccc1)CCCC3 |  | inconclusive: 22.4 µM [inhibitor, full curve, poor fit] |

| Structure (SMILES) | activity change, negative = inhibition | Potency |
| --- | --- | --- |
| COc1ccc2nc(Cl)c(C3CC(c4ccco4)=NN3C(=O)CCCC(=O)O)cc2c1 (configuration not stated) |  | inconclusive: 28.2 µM [inhibitor, full curve] |
| COC(=O)CCC(=O)OC1(C)C(=O)C=C2C=C(C3CC3)N(Cc3ccc4c(c3)OCO4)C=C2C1=O (configuration not stated) | inactive: -1.09% |  |
| COc1cccc(N2CCN(CC(=O)Nc3ccc(-n4cnnn4)cc3)CC2)c1 |  | inconclusive: 39.8 µM [inhibitor, single point] |
| Cc1ccc(-c2cc(C(F)(F)F)n3nc(-c4ccc(Cl)cc4)cc3n2)cc1 | inactive: -4.12% |  |
| O=C(c1ccccc1)c1ccc(C(=O)N2CCN(c3ccccc3)CC2)cc1 |  | inconclusive: 89.1 µM [inhibitor, single point] |
| Cc1cc(C(C)(C)C)c(O)c(C(C)(C)C)c1 |  | inconclusive: 2.51 µM [inhibitor, partial curve, poor fit] |
| C=CCNc1nc(-c2ccc(O)c(C(N)=O)c2)cs1 | inactive: 13.3% |  |
| COc1ccc(N/C(N)=N/c2nc(CSc3ccc(Cl)cc3)cc(=O)[nH]2)cc1 |  | inconclusive: 89.1 µM [inhibitor, single point] |
| O=C(N/N=C/c1cc(Br)c(Br)o1)C(O)c1ccccc1 (configuration not stated) |  | active: 22.4 µM |
| COc1cccc(Cn2c(=O)n(-c3ccc(C)c(F)c3)c(=O)c3sc4ccccc4c32)c1 |  | inconclusive: 44.7 µM [inhibitor, partial curve] |
| CN(C)NC(=O)C12CCC(C)(C(=O)O1)C2(C)C (configuration not stated) | inactive: 6.54% |  |
| Cc1ccc(NC(=O)Cn2c(=O)oc3ccccc32)cc1Cl |  | active: 39.8 µM |
| CN(C)c1oc(-c2ccc(OCc3ccccc3)cc2)nc1C#N |  | inconclusive: 35.5 µM [inhibitor, partial curve] |
| O=c1c2ccccc2ncn1CCOCCOc1cccc(Br)c1 |  | inconclusive: 39.8 µM [inhibitor, single point] |
| CC(C)(C)OC(=O)[C@H](Cc1ccccc1)NC(=O)c1nc[nH]c1C(=O)NC1CCN(C(=O)OC(C)(C)C)CC1 |  | inconclusive: 25.1 µM [inhibitor, full curve, poor fit] |
| COc1ccc(NC(=O)CSc2oc(-c3cccs3)nc2S(=O)(=O)c2ccc(Br)cc2)c(OC)c1 |  | inconclusive: 8.91 µM [inhibitor, full curve, poor fit] |
| COc1ccc(N(CC(=O)Nc2ccc3c(c2)OCO3)S(=O)(=O)c2ccccc2)cc1 |  | inconclusive: 79.4 µM [inhibitor, single point] |
| Cc1occc1C(=O)N/N=C/c1ccc2c(c1)OCO2 | inactive: 28.1% |  |
| CCOC(=O)c1cc(-c2ccccc2)sc1NC(=O)CSc1nnnn1C |  | inconclusive: 1.58 µM [inhibitor, full curve] |
| CCOC(=O)C1CCCN(CCC(=O)Nc2ccc3c(c2)CCC3)C1 (configuration not stated) |  | inconclusive: 89.1 µM [inhibitor, single point] |
| COc1ccc(N=Cc2c(O)n(-c3cccc(C)n3)c(=O)c3ccccc23)c(OC)c1 | inconclusive: -40.5% [inhibitor] |  |
| COc1ccc(-n2c(/C=C/c3c(C)[nH]c4ccccc34)nc3ccccc3c2=O)cc1 | inconclusive: -92.7% [inhibitor] |  |
| O=C(O)c1ccc(Cn2c(SCc3cc(=O)n4cc(Br)ccc4n3)nc3ccsc3c2=O)cc1 |  | inconclusive: 28.2 µM [inhibitor, single point] |

Part of the list above in order of number of heavy atoms, descending.

| Structure (SMILES) | activity change, negative = inhibition | Potency |
| --- | --- | --- |
| CCOC(=O)c1cc(-c2ccccc2)sc1NC(=O)CSc1nnnn1C |  | inconclusive: 1.58 µM [inhibitor, full curve] |
| CN(C)c1oc(-c2ccc(OCc3ccccc3)cc2)nc1C#N |  | inconclusive: 35.5 µM [inhibitor, partial curve] |
| O=C(N/N=C/c1cc(Br)c(Br)o1)C(O)c1ccccc1 (configuration not stated) |  | active: 22.4 µM |
